In PubChem BioAssay AID2685 (National Center for Advancing Translational Sciences (NCATS), 2010) one finds cell number change and AC50 data, which are given here for 38 compounds.

The list shows a part of the results. The main result of the screen is listed elsewhere. These columns were measured beside it and carry no call. Most of these compounds were active or inconclusive in the main read-out, so they are no random draw. Potencies come from curve fits of mixed quality, noted in brackets.

One may read the AC50 as the concentration at which the activity in the assay is half-maximal. A low value points to activity at low concentration.

The assay can be described thus: qHTS Assay for Lipid Storage Modulators in Drosophila S3 Cells.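 On cell number change: cells counted by Cell Tracker Red CMTPX staining in the red channel.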 The conditions noted are these: BODIPY lipid droplet fluorescence, 18-24 h; for cell number change: measured here: cell count max response, cells fed with added oleic acid. The essentials: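 Laser-scanning cytometry quantifies lipid droplet accumulation (500–530 nm total intensity; droplet/cell object ratio) in oleic acid-fed (400 uM added) Drosophila S3 cells treated with a concentration series. 20 uM Triacsin C defined 100% inhibition.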
A general note: Quantitative high-throughput screening tests each substance at several concentrations.

The mark [1] stands for this setting: measured here: cell number channel AC50, cells fed with added oleic acid.
The mark [2] stands for this setting: measured here: lipid fluorescence (Fed channel) AC50, cells fed with added oleic acid.

Take `Cc1ccc(C(=O)OCC(=O)Nc2ccccc2C(F)(F)F)cc1S(=O)(=O)N1CCCCC1`: the cell number change is 221%.

Consider `CCOC(CCNC(=O)c1cn(CC(C)C)c(=O)c2c1c1ccccc1n2C)OCC`, for which the cell number change was -30.5%. Also, the AC50 under setting [1] was 0.0651 µM [falling, full curve, poor fit].

For `O=C(Nc1ccccc1N1CCCC1)c1ccc(Cl)c(S(=O)(=O)N2CCOCC2)c1`, the cell number change was 27.5%. Under setting [2], the AC50 is 29.1 µM [rising, single point].

Consider `CCCCCCc1ccc(OCC(=O)O)cc1OCC(=O)O`, for which the cell number change was -1.23%. The AC50 under setting [2] was 0.00651 µM [falling, full curve, poor fit].

As for `O=C(CCC(=O)N1CCOc2ccccc21)Nc1ccccc1Br`, the cell number change is -6.05%. Under setting [2], the AC50 was 0.00461 µM [rising, full curve, poor fit].

Consider `S=c1[nH]nc(-c2ccncc2)n1Cc1ccccc1`, for which the cell number change is -15.3%.

For `CC(=O)Nc1ccc(NC(=O)CC(c2ccccc2)c2ccccc2)cc1`, the cell number change is -18.4%. Also, under setting [1], the AC50 is 0.00461 µM [falling, full curve, poor fit].

`Cc1sc2ncn(CC(=O)NCC3COc4ccccc4O3)c(=O)c2c1S(=O)(=O)N1CCOCC1` (configuration not stated): the cell number change came out at 43.7%. Moreover, the AC50 under setting [1] was 2.31 µM [falling, partial curve]. Also, the concentration at half-maximal activity (AC50) under setting [2] was 2.59 µM [falling, partial curve].

Regarding `COc1ccc(C(=O)NC(C(=O)NCCc2ccc3c(c2)OCCO3)C(C)C)cc1` (configuration not stated), the AC50 under setting [2] was 3.26 µM [rising, single point].

Regarding `CC(C)(C)OC(=O)NCc1ccc(CNC(=O)c2nc[nH]c2C(=O)N2CCN(c3ccccc3)CC2)cc1`, the cell number change is -37.5%. Also, the AC50 under setting [1] was 20.6 µM [falling, partial curve]. In addition, the AC50 under setting [2] was 4.11 µM [falling, partial curve].

In the case of `COc1ccc(Cc2nc3ccc(C(=O)NCCc4ccncc4)cc3o2)cc1OC`, the cell number change is -54.2%. The AC50 under setting [1] was 29.1 µM [falling, single point]. Moreover, the half-maximal activity concentration (AC50) under setting [2] was 9.2 µM [falling, partial curve, poor fit].

Turning to `COc1ccc(NC(=O)/C(N=Nc2cc(S(=O)(=O)Nc3ccc(OC)cc3)ccc2OC)=C(\C)O)cc1`, the cell number change was -21.5%.

As for `Cc1cc(NC(=O)CSc2nc(C3CC3)nc3sc(C)c(C)c23)no1`, the cell number change was -18.4%. For the same compound, the AC50 under setting [1] is 0.259 µM [rising, partial curve, poor fit]. The AC50 under setting [2] is 0.58 µM [rising, single point].

For the compound `Cc1cccc(Cn2c(C(=O)OC(C)C)cc3c2ccn3C)c1`, the cell number change is -42.7%. The AC50 under setting [1] is 29.1 µM [falling, single point].

With `Cc1cc(NC(=O)CCC(=O)N(CCC(C)C)CC(=O)NCC2CCCO2)no1` (configuration not stated), the AC50 under setting [1] was 0.517 µM [falling, partial curve].

Turning to `Cc1ccc(S(=O)(=O)ON=C2CCN(S(=O)(=O)c3ccccc3)CC2)cc1`, the cell number change worked out at 14.5%. Further, the AC50 under setting [2] was 20.6 µM [rising, partial curve, poor fit].

Regarding `NC(=O)CSc1nnc(NC(=O)c2ccc(Br)o2)s1`, under setting [2], the AC50 is 0.116 µM [rising, single point].

On to `COc1ccc(N2CCN(c3nc(NC(C)(C)C)nc(N4CCCCC4)n3)CC2)cc1`, for which the cell number change is -128%. In addition, the AC50 under setting [2] was 29.1 µM [falling, single point].

Consider `O=C(CSc1nnc2c(n1)[nH]c1ccccc12)Nc1ccc2c(c1)OCO2`, for which the cell number change was determined as 35.6%. Under setting [1], the concentration at half-maximal activity (AC50) is 0.231 µM [rising, full curve].

Take `Nc1nc(-c2ccccc2)[nH]c(=O)c1N=O`: the cell number change is 9.04%.

On to `C/C(=N/NC(=O)CNC(=O)/C=C/c1ccccc1)c1ccco1`, for which the cell number change was -20.3%. Also, the AC50 under setting [2] is 20.6 µM [falling, single point].

Turning to `O=c1c(-c2nc3ccccc3s2)cccn1Cc1ccc(Cl)cc1`, the cell number change is 15.2%.

`CC(C)N(Cc1ccccc1)C(=O)COC(=O)c1ccc(O)cc1`: the cell number change is -15%. Besides, under setting [2], the AC50 was 1.64 µM [falling, partial curve].

For `O=C(CSc1nnc(-c2cnccn2)n1Cc1ccco1)Nc1ccc(Br)cc1`, the cell number change came out at 49.2%. Moreover, under setting [1], the AC50 was 23.1 µM [rising, single point].

For `CCOC(=O)C1(C)/C(=N/Nc2cccc(Cl)c2)C(=O)C(=O)N1c1ccccc1` (configuration not stated), the cell number change amounted to 12%. Also, under setting [2], the AC50 was 0.58 µM [rising, single point].

Turning to `OC(CN1CCOCC1)C12CC3CC(CC(C3)C1)C2` (configuration not stated), the cell number change is -23.6%. Moreover, the AC50 under setting [2] was 29.1 µM [falling, single point].

As for `C=CCNC(=O)c1ccccc1NC(=O)C1CCN(S(=O)(=O)c2ccc(SC)cc2)CC1`, the cell number change was -15.8%.

`Cc1cc(C)cc(OCC(=O)N(C)CC(=O)Nc2ccc(N3CCOCC3)cc2)c1`: the cell number change was -11.3%.

For `C=CCn1c(SCC(=O)c2[nH]c(C)c(C(=O)OCC)c2C)nc2scc(-c3ccc(OC)c(OC)c3)c2c1=O`, the cell number change is -17.6%. For the same compound, under setting [1], the AC50 is 3.66 µM [falling, single point].

As to `Cc1ccc(C(=O)c2oc3ccccc3c2N)cc1`, the cell number change is -42.2%. Under setting [1], the AC50 was 14.6 µM [falling, partial curve]. The half-maximal activity concentration (AC50) under setting [2] was 14.6 µM [falling, partial curve].

Regarding `COc1cc(OC)cc(C(=O)NC(=S)NNC(=O)[C@H]2C[C@@H]2c2ccccc2)c1`, the cell number change amounted to 20.6%. Also, the AC50 under setting [2] was 4.61 µM [rising, full curve, poor fit].

With `CCN(CC)C(=O)C1(P(=O)(c2ccccc2)c2ccccc2)CCC1`, the cell number change turned out to be 10.3%. Besides, the AC50 under setting [2] is 1.64 µM [falling, partial curve].

Consider `COc1ccc(Cc2nnc(SCC(=O)N(c3ccccc3)C(C)C)n(N)c2=O)cc1`, for which the cell number change came out at 66.7%. Besides, the AC50 under setting [1] was 8.2 µM [rising, partial curve, poor fit].

As for `O=C(NCc1ccccc1)C1CCCN(S(=O)(=O)c2cccc3nsnc23)C1` (configuration not stated), the cell number change stood at 25.8%. In addition, the AC50 under setting [2] is 0.058 µM [falling, full curve, poor fit].

On to `O=C1COc2ccc(C(=O)c3ccccc3C(=O)NCc3ccco3)cc2N1`, for which the cell number change was 23.6%. Also, under setting [2], the AC50 was 29.1 µM [rising, single point].

As for `BrC(=C\c1ccccc1)/C=N/Nc1nc2ccccc2[nH]1`, the cell number change came out at 32.4%. Besides, under setting [1], the AC50 is 6.51 µM [rising, partial curve]. The half-maximal activity concentration (AC50) under setting [2] was 23.1 µM [rising, single point].

As to `COc1ccc(C(=O)c2oc3nc(C)cc(C)c3c2N)cc1`, the cell number change is -6.35%. Under setting [2], the AC50 is 0.326 µM [rising, full curve].

`CCC1CCCCN1CC(=O)Nc1cc(C)nn1-c1nc(C)cc(C)n1` (configuration not stated): the cell number change was 77.5%. Further, the concentration at half-maximal activity (AC50) under setting [1] was 29.1 µM [rising, single point].
